No constants are given. Whether binding was seen depends on the method and setting. Some binding calls cover weakened binding; strength is not graded here.
Target: truncated 1-deoxy-D-xylulose-5-phosphate synthase from Pseudomonas aeruginosa (ΔpaDXPS) (Pseudomonas aeruginosa) (UniProt Q9KGU7)
Assay: crystal structure

Amino acid sequences for entries named in this document (tags omitted). A change or cut given only in a name is not applied to a line headed by its entry.
UniProt Q9KGU7, whole entry, looked up, stated change not applied: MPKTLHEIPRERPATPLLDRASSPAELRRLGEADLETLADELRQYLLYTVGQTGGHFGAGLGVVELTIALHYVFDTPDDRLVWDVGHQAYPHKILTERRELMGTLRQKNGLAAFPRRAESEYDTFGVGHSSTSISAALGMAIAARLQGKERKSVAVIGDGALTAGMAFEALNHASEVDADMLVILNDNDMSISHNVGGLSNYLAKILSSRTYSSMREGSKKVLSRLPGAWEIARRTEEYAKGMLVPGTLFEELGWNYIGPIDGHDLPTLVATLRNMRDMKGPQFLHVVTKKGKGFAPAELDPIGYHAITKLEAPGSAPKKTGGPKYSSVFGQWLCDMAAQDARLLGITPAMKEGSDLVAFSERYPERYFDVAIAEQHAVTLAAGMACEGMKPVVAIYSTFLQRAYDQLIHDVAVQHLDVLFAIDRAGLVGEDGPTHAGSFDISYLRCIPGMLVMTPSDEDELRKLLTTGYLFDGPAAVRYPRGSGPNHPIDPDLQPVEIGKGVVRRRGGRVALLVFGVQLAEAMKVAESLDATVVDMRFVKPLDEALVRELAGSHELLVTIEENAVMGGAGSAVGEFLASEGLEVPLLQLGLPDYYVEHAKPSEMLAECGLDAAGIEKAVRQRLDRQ

Q: “truncated 1-deoxy-D-xylulose-5-phosphate synthase from Pseudomonas aeruginosa (ΔpaDXPS) (from UniProt Q9KGU7 1-205; Q9KGU7 246-627) (enzyme)” was tested. Which binding did it give?
A: binds

Source: paper doi:10.1101/2022.07.04.498669
